Data from PMC3695902.
Results are given in words; binding and its absence hold for the method and conditions named. Binding seen in cells or lysates may run through a third protein. Some binding calls cover weakened binding; strength is not graded here. For some of these results: Sequences can lack the tags named with a protein.

By UniProt entry, the sequences of proteins in these tests, tags left out.
UniProt P42866: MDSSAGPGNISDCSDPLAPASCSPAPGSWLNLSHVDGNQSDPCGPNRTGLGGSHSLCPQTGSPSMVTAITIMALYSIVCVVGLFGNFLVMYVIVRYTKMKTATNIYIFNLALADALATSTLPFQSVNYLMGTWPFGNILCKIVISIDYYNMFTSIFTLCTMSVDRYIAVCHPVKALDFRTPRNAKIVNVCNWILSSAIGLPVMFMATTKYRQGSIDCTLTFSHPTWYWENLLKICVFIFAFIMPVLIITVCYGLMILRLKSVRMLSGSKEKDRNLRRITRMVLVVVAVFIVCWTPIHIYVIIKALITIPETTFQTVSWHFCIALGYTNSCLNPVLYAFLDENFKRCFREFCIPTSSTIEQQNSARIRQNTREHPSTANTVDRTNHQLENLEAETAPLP
UniProt P41145: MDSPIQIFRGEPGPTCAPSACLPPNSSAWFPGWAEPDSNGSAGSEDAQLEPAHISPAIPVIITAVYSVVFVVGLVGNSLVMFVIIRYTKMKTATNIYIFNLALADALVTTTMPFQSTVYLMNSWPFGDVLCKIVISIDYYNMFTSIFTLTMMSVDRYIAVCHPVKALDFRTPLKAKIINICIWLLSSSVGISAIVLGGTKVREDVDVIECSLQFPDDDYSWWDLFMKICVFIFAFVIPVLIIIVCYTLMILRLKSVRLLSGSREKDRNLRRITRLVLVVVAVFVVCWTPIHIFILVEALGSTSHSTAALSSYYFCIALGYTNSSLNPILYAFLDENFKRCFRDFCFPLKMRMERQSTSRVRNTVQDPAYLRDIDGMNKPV

Molecular target: mu-opioid receptor endogenous in mouse brain (mouse (endogenous in C57BL6 brain)) (UniProt P42866)
Experiment: co-IP; MOR immunoprecipitated from whole mouse brain lysate with rabbit anti-MOR (AB1580) on Protein-G MAG sepharose beads; blots with anti-SIAH1, anti-GPR177 or anti-VAPA; mock with rabbit IgG

binding	Binder
binds	WLS (GPR177) endogenous in mouse brain (protein, UniProt Q6DID7 1-541) MAGAIIENMSTKKLCIVGGILLVFQIVAFLVGGLIAPAPTTAVPYTAIKCVDVRKNHHKTRWLAPWGPNKCDKIRDIEEAIPREIEANDIVFSVHIPLPSMEMSPWFQFMLFILQLDIAFKLNNQIRENAEISMDVSLGYRDDMFSEWTEMAHERVPRKLKCTFTSPKTPEHEGRYYNCDVLPFMEIGSVAHKYYLLNIRLPVNEKKKINVGIGEIKDIRLVGIHQNGGFTKVWFAMKTFLTPSIFIIMVWYWRRITMMSRPPVLLEKVIFALGISMTFINIPVEWFSIGFDWTWMLLFGDIRQGIFYAMLLSFWIIFCGEHMMDQHERNHIAGYWKQVGPIAVGSFCLFIFDMCERGVQLTNPFYSIWTTDVGTELAMAFIIVAGICLCLYFLFLCFMVFQVFRNISGKQSSLPAMSKVRRLHYEGLIFRFKFLMLITLACAAMTVIFFIVSQVSEGHWKWGGVTVQVSSAFFTGIYGMWNLYVFALMFLYAPSHKNYGEDQSNGDLGVHSGEELQLTTTITHVDGPTEIYKLTRKEAQE
binds	VAPA endogenous in mouse brain (protein, UniProt Q9WV55 1-249) MASASGAMAKHEQILVLDPPSDLKFKGPFTDVVTTNLKLQNPSDRKVCFKVKTTAPRRYCVRPNSGIIDPGSIVTVSVMLQPFDYDPNEKSKHKFMVQTIFAPPNISDMEAVWKEAKPDELMDSKLRCVFEMPNENDKLNDMEPSKAVPLNASKQDGPLPKPHSVSLNDTETRKLMEECKRLQGEMMKLSEENRHLRDEGLRLRKVAHSDKPGSTSAVSFRDNVTSPLPSLLVVIAAIFIGFFLGKFIL

Molecular target: FLAG-tagged kappa opioid receptor stably expressed in HEK293 cells (HEK-KOR) (UniProt P41145)
Experiment: co-IP; FLAG-tagged MOR, DOR or KOR immunoprecipitated with rabbit anti-FLAG on Protein-G Dynabeads from 1 mg lysate of stably expressing HEK293 cells transfected with tagged MORIPs; blot anti-myc or anti-HA; mock IP with non-specific rabbit IgG; cells of Figure 7B treated 6 hours with 30 µM MG132

Binder	binding
myc-tagged full-length AUP1 (protein, UniProt Q9Y679-2 1-410) MELPSGPGPERLFDSHRLPGDCFLLLVLLLYAPVGFCLLVLRLFLGIHVFLVSCALPDSVLRRFVVRTMCAVLGLVARQEDSGLRDHSVRVLISNHVTPFDHNIVNLLTTCSTPLLNSPPSFVCWSRGFMEMNGRGELVESLKRFCASTRLPPTPLLLFPEEEATNGREGLLRFSSWPFSIQDVVQPLTLQVQRPLVSVTVSDASWVSELLWSLFVPFTVYQVRWLRPVHRQLGEANEEFALRVQQLVAKELGQTGTRLTPADKAEHMKRQRHPRLRPQSAQSSFPPSPGPSPDVQLATLAQRVKEVLPHVPLGVIQRDLAKTGCVDLTITNLLEGAVAFMPEDITKGTQSLPTASASKFPSSGPVTPQPTALTFAKSSWARQESLQERKQALYEYARRRFTERRAQEAD	binds
myc-tagged full-length SIAH2 (enzyme, UniProt O43255 1-324) MSRPSSTGPSANKPCSKQPPPQPQHTPSPAAPPAAATISAAGPGSSAVPAAAAVISGPGGGGGAGPVSPQHHELTSLFECPVCFDYVLPPILQCQAGHLVCNQCRQKLSCCPTCRGALTPSIRNLAMEKVASAVLFPCKYATTGCSLTLHHTEKPEHEDICEYRPYSCPCPGASCKWQGSLEAVMSHLMHAHKSITTLQGEDIVFLATDINLPGAVDWVMMQSCFGHHFMLVLEKQEKYEGHQQFFAIVLLIGTRKQAENFAYRLELNGNRRRLTWEATPRSIHDGVAAAIMNSDCLVFDTAIAHLFADNGNLGINVTISTCCP	binds

Now from value to binder:

binding	Binder
binds	myc-tagged full-length WLS (protein, UniProt Q5T9L3-1 1-541) MAGAIIENMSTKKLCIVGGILLVFQIIAFLVGGLIAPGPTTAVSYMSVKCVDARKNHHKTKWFVPWGPNHCDKIRDIEEAIPREIEANDIVFSVHIPLPHMEMSPWFQFMLFILQLDIAFKLNNQIRENAEVSMDVSLAYRDDAFAEWTEMAHERVPRKLKCTFTSPKTPEHEGRYYECDVLPFMEIGSVAHKFYLLNIRLPVNEKKKINVGIGEIKDIRLVGIHQNGGFTKVWFAMKTFLTPSIFIIMVWYWRRITMMSRPPVLLEKVIFALGISMTFINIPVEWFSIGFDWTWMLLFGDIRQGIFYAMLLSFWIIFCGEHMMDQHERNHIAGYWKQVGPIAVGSFCLFIFDMCERGVQLTNPFYSIWTTDIGTELAMAFIIVAGICLCLYFLFLCFMVFQVFRNISGKQSSLPAMSKVRRLHYEGLIFRFKFLMLITLACAAMTVIFFIVSQVTEGHWKWGGVTVQVNSAFFTGIYGMWNLYVFALMFLYAPSHKNYGEDQSNGDLGVHSGEELQLTTTITHVDGPTEIYKLTRKEAQE
binds	myc-tagged full-length VAPA (protein, UniProt Q9P0L0-1 1-249) MASASGAMAKHEQILVLDPPTDLKFKGPFTDVVTTNLKLRNPSDRKVCFKVKTTAPRRYCVRPNSGIIDPGSTVTVSVMLQPFDYDPNEKSKHKFMVQTIFAPPNTSDMEAVWKEAKPDELMDSKLRCVFEMPNENDKLNDMEPSKAVPLNASKQDGPMPKPHSVSLNDTETRKLMEECKRLQGEMMKLSEENRHLRDEGLRLRKVAHSDKPGSTSTASFRDNVTSPLPSLLVVIAAIFIGFFLGKFIL
binds	myc-tagged full-length human SIAH1 (enzyme, UniProt Q8IUQ4-1 1-282) MSRQTATALPTGTSKCPPSQRVPALTGTTASNNDLASLFECPVCFDYVLPPILQCQSGHLVCSNCRPKLTCCPTCRGPLGSIRNLAMEKVANSVLFPCKYASSGCEITLPHTEKADHEELCEFRPYSCPCPGASCKWQGSLDAVMPHLMHQHKSITTLQGEDIVFLATDINLPGAVDWVMMQSCFGFHFMLVLEKQEKYDGHQQFFAIVQLIGTRKQAENFAYRLELNGHRRRLTWEATPRSIHEGIATAIMNSDCLVFDTSIAQLFAENGNLGINVTISMC
